From patent US20110046137A1, “Pyrazole Derivatives as P2X7 Modulators” (Glaxo Group Limited, priority 2007, published 2011)
Some results were stated once for a whole list of compounds, not compound by compound.

molecular target: T1, human recombinant P2X7 receptors (Homo sapiens, UniProt Q99572); test: Fluorescent Imaging Plate Reader (FLIPR) Ca Assay; format: cell-based; details: HEK293 cells expressing human recombinant P2X7; blocking BzATP responses; tested in one and/or the other assay
T1 construct: expressed in transfected cells; host or cells: HEK293
T1 sequence (Q99572 1-595): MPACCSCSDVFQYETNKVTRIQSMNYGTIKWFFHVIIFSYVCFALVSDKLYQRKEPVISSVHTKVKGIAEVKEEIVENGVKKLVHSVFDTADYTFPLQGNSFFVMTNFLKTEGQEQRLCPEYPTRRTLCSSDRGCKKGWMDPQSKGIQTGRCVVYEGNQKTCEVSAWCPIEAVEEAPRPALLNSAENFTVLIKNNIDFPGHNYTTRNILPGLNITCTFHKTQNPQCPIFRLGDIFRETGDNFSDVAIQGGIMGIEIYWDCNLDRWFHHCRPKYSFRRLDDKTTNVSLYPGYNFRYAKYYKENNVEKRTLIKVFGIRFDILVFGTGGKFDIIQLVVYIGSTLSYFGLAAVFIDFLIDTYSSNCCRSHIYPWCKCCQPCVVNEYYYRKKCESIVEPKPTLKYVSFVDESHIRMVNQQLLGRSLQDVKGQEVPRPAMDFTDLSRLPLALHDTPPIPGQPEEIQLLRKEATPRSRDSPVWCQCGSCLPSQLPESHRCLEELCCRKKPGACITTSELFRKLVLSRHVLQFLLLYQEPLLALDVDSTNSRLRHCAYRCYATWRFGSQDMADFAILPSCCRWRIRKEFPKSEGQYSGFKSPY

p1050 values in the FLIPR Ca Assay (human P2X7 receptor antagonist activity), > 4.7:
Cc1nn(-c2ccccc2)c(C)c1CC(=O)NCc1cc(C(F)(F)F)ccc1F [Example 4, 2-(3,5-dimethyl-1-phenyl-1H-pyrazol-4-yl)-N-{[2-fluoro-5-(trifluoromethyl)phenyl]methyl}acetamide]
Cc1nn(-c2ccc(C(=O)NCc3ccccn3)cc2)c(C)c1CC(=O)NCc1ccc(F)cc1Cl [Example 161, 4-[4-(2-{[(2-chloro-4-fluorophenyl)methyl]amino}-2-oxoethyl)-3,5-dimethyl-1H-pyrazol-1-yl]-N-(2-pyridinylmethyl)benzamide]
Cc1nn(CCc2ccccc2)c(C)c1CC(=O)NCc1ccc(F)cc1Cl [Example 82, N-[(2-chloro-4-fluorophenyl)methyl]-2-[3,5-dimethyl-1-(2-phenylethyl)-1H-pyrazol-4-yl]acetamide]
Cc1nn(C2CCN(C)CC2)c(C)c1CC(=O)NCc1ccc(F)cc1Cl [Example 96, N-[(2-chloro-4-fluorophenyl)methyl]-2-[3,5-dimethyl-1-(1-methyl-4-piperidinyl)-1H-pyrazol-4-yl]acetamide]
Cc1nn(-c2ccccc2)c(C)c1CC(=O)NCc1cc(F)cc(C(F)(F)F)c1 [Example 8, 2-(3,5-dimethyl-1-phenyl-1H-pyrazol-4-yl)-N-{[3-fluoro-5-(trifluoromethyl)phenyl]methyl}acetamide]
CCOc1ccc(-n2nc(C)c(CC(=O)NCc3ccc(F)cc3Cl)c2C)cc1 [Example 63, N-[(2-chloro-4-fluorophenyl)methyl]-2-{1-[4-(ethyloxy)phenyl]-3,5-dimethyl-1H-pyrazol-4-yl}acetamide]
Cc1nn(-c2ccccn2)c(C)c1CC(=O)NCc1ccc(F)cc1Cl [Example 75, N-[(2-chloro-4-fluorophenyl)methyl]-2-[3,5-dimethyl-1-(2-pyridinyl)-1H-pyrazol-4-yl]acetamide]
Cc1nn(CCO)c(C)c1CC(=O)NCc1ccc(F)cc1Cl [Example 132, N-[(2-chloro-4-fluorophenyl)methyl]-2-[1-(2-hydroxyethyl)-3,5-dimethyl-1H-pyrazol-4-yl]acetamide]
Cc1nn(-c2ccccc2)c(C)c1CC(=O)NCc1ccc(OC(F)(F)F)cc1 [Example 3, 2-(3,5-dimethyl-1-phenyl-1H-pyrazol-4-yl)-N-({4-[(trifluoromethyl)oxy]phenyl}methyl)acetamide]
Cc1nn(-c2ccccc2)c(C)c1CC(=O)NCc1ccc(F)c(C(F)(F)F)c1 [Example 6, 2-(3,5-dimethyl-1-phenyl-1H-pyrazol-4-yl)-N-{[4-fluoro-3-(trifluoromethyl)phenyl]methyl}acetamide]
COc1ccc(-n2nc(C)c(CC(=O)NCc3ccc(F)cc3Cl)c2C)cc1 [Example 55, N-[(2-chloro-4-fluorophenyl)methyl]-2-{3,5-dimethyl-1-[4-(methyloxy)phenyl]-1H-pyrazol-4-yl}acetamide]
Cc1nn(Cc2ccccc2Cl)c(C)c1CC(=O)NCc1ccc(F)cc1Cl [Example 84, N-[(2-chloro-4-fluorophenyl)methyl]-2-{1-[(2-chlorophenyl)methyl]-3,5-dimethyl-1H-pyrazol-4-yl}acetamide]
Cc1nn(-c2ccc(C(=O)N3CCOCC3)cc2)c(C)c1CC(=O)NCc1ccc(F)cc1Cl [Example 154, N-[(2-chloro-4-fluorophenyl)methyl]-2-{3,5-dimethyl-1-[4-(4-morpholinylcarbonyl)phenyl]-1H-pyrazol-4-yl}acetamide]
